Measured values taken from PubChem BioAssay AID2685 (National Center for Advancing Translational Sciences (NCATS), 2010).
The other results are listed elsewhere or left out. The main result of the screen is listed elsewhere. These columns were measured beside it and carry no call. The list favours compounds with an active or inconclusive main result. Potencies come from curve fits of mixed quality, noted in brackets.

Assay: qHTS Assay for Lipid Storage Modulators in Drosophila S3 Cells;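 for cell number change: cells counted by Cell Tracker Red CMTPX staining in the red channel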
Details: BODIPY lipid droplet fluorescence, 18-24 h; for cell number change: measured here: cell count max response, cells fed with added oleic acid
Outline: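 Drosophila S3 cells got compounds at several concentrations plus oleic acid (400 uM solution). Laser-scanning cytometry with 488 nm excitation read lipid droplets at 500-530 nm and cells at 575-640 nm. Percent activity was relative to 20 uM Triacsin C.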

[1] = measured here: lipid fluorescence (Fed channel) AC50, cells fed with added oleic acid
[2] = measured here: cell number channel AC50, cells fed with added oleic acid

Compound | cell number change [%] | AC50 [1] | AC50 [2]
CCOC(=O)C1=C(C)NC2=C(C(=O)CC(c3ccc(OC)c(OC)c3)C2)C1c1ccc(C)o1 (centres undefined) | -11.4 | 0.366 µM [falling, single point] | 
Cc1ccc(N/C(CSC(N)=O)=N\S(=O)(=O)c2ccc(C)cc2)cc1 | -24.3 | 5.8 µM [falling, full curve] | 
COc1cc2c(cc1NC(=O)C(C)Sc1ccc(NC(C)=O)cc1)oc1ccccc12 (centres undefined) | 1.49 | 0.0184 µM [rising, full curve, poor fit] | 
CCN(C(=O)CN1C(=O)NC2(CCc3ccccc32)C1=O)C1CCS(=O)(=O)C1 (centres undefined) | 25.9 | 16.4 µM [rising, single point] | 
Cc1ccc(C)c(S(=O)(=O)NCC(=O)Nc2ccc3c(c2)OCO3)c1 | 11.3 | 6.51 µM [rising, full curve, poor fit] | 
CCOc1ccc(-c2nc(N)ncc2-c2ccc(Cl)cc2)c(O)c1 | -73.4 |  | 8.2 µM [falling, partial curve]
Cc1cc(C)nc(SCC(=O)N/N=C/c2cccs2)n1 | 10.9 | 23.1 µM [rising, partial curve, poor fit] | 
Cc1ccc(CN(C(=O)c2ccc(Cl)c([N+](=O)[O-])c2)C2CCS(=O)(=O)C2)o1 (centres undefined) | -2.45 |  | 
O=C(NC1CCCC1)C(c1cccnc1)N(C(=O)c1ccco1)c1cccc(F)c1 (centres undefined) | -3.85 |  | 
NC(=O)c1nsc(C(=O)N(CC(=O)NCc2ccccc2)c2ccc(F)cc2)c1N | 16.7 |  | 
CCOC(=O)N1CCN(C2=CC(=O)OC23CCCCC3)CC1 | 12.1 | 6.51 µM [falling, single point] | 
Cc1cc(OCC(=O)Nc2ccc(N3CCN(C(=O)c4ccco4)CC3)cc2)cc(C)c1Cl |  | 1.46 µM [rising, partial curve] | 
COc1ccc(/C=N/NC(=O)CCCOc2ccc(Cl)cc2Cl)cc1 | -21.4 | 29.1 µM [falling, partial curve] | 
Cc1ccc(Cl)cc1-c1ccc(C=Nc2ccc(N3CCOCC3)cc2)o1 | 13.5 | 9.2 µM [rising, single point] | 6.51 µM [rising, single point]
Fc1ccc(Oc2nc(-c3ccccc3)nnc2C(F)(F)F)cc1 | 1.12 | 1.64 µM [rising, partial curve] | 1.64 µM [rising, partial curve]
CCn1c(SCC(=O)N2CCCC2)nc2ccccc21 |  | 0.58 µM [falling, full curve, poor fit] | 
CCc1nnc(NC(=O)CSc2ccc(-c3ccccc3OC)nn2)s1 | 33.1 |  | 23.1 µM [rising, single point]
Cc1nccn1CCCNC(=O)c1nc(Cn2cc([N+](=O)[O-])cn2)no1 | 31.4 |  | 0.461 µM [rising, full curve, poor fit]
CCO/C=C1\C(=O)N(c2ccccc2)C(=O)c2ccccc21 | 38.2 | 0.411 µM [falling, partial curve, poor fit] | 0.651 µM [rising, partial curve]

Compound | cell number change [%] | AC50 [1] | AC50 [2]
Cc1onc(-c2c(F)cccc2Cl)c1C(=O)NNC(=O)C1CCN(Cc2cccc(F)c2)CC1 |  |  | 6.51 µM [falling, single point]
CNC(=O)CN(c1cc(OCCOC)c(Cl)cc1Cl)S(=O)(=O)c1ccccc1 |  |  | 0.731 µM [rising, single point]
O=C(Cc1ccccc1)Nc1ccccc1Oc1ccccc1 | -51.2 | 2.31 µM [rising, full curve] | 29.1 µM [falling, single point]
CC1CCCCC1NC(=O)COC(=O)c1cc(=O)c2ccccc2o1 (centres undefined) | -0.677 | 1.84 µM [rising, partial curve] | 0.13 µM [rising, full curve, poor fit]
CCOC(=O)N1CCC(NC(=O)C(CC(C)C)NC(=O)C2CCC(C)CC2)CC1 (centres undefined) | 31.9 | 3.66 µM [falling, partial curve] | 11.6 µM [rising, single point]
CC(=O)C1=C(C)Nc2ncnn2C1c1ccc(F)cc1 (centres undefined) | 9.19 | 29.1 µM [rising, single point] | 
Cc1ccc(NC(=O)N2CCCCCC2)cc1C | -3.18 |  | 
O=C(NC1CCCCCCC1)c1ccc2c(c1)N(Cc1ccc(F)cc1)C(=O)CS2=O (centres undefined) | 10.4 | 2.06 µM [rising, full curve] | 
COc1ccc(OC)c(Nc2cc(C)c3ccccc3n2)c1 | -0.835 | 10.3 µM [falling, partial curve, poor fit] | 
CCNC(=S)NNC(=O)c1cc(-c2cccc(OCC)c2)nc2ccccc12 | 71 | 5.17 µM [rising, full curve] | 20.6 µM [rising, single point]
COc1ccc2[nH]c(C(=O)N(Cc3ccccn3)Cc3ccccn3)cc2c1 | -15.9 | 23.1 µM [falling, single point] | 
Cc1cc(=O)[nH]c(N/N=C/c2c(C)nn(-c3ccccc3Cl)c2Cl)n1 | -44.9 |  | 
CCCn1nnc(NC(=S)NC(=O)CC)n1 | -1.03 | 4.11 µM [falling, full curve] | 6.51 µM [falling, single point]
CCC(C)(C)n1nnnc1C(C(C)C)N(CCCO)Cc1cc2cc(C)ccc2[nH]c1=O (centres undefined) | -4.37 | 3.26 µM [rising, single point] | 
Cc1ccccc1Cn1ccc(NC(=O)CCSc2nc(-c3ccco3)cc(C(F)(F)F)n2)n1 | -21 | 16.4 µM [falling, partial curve] | 
CCCN1CN(Cc2ccco2)c2nc3ccccc3n2C1 | 3.83 | 0.651 µM [rising, single point] | 
CC(=O)c1cc(C)ccc1OC(=O)c1ccco1 | -30.3 | 0.82 µM [falling, full curve, poor fit] | 0.731 µM [falling, full curve, poor fit]
CCOC(=O)CSc1nc2ccccc2c(=O)n1NC(=O)c1ccccc1 | 15.7 | 11.6 µM [rising, partial curve, poor fit] | 

Some of these compounds in order of molecular weight, smallest number first:
Compound | cell number change [%] | AC50 [1] | AC50 [2]
CCn1c(SCC(=O)N2CCCC2)nc2ccccc21 |  | 0.58 µM [falling, full curve, poor fit] | 
COc1ccc2[nH]c(C(=O)N(Cc3ccccn3)Cc3ccccn3)cc2c1 | -15.9 | 23.1 µM [falling, single point] | 
CCOC(=O)CSc1nc2ccccc2c(=O)n1NC(=O)c1ccccc1 | 15.7 | 11.6 µM [rising, partial curve, poor fit] | 
